This is an account of results in PubChem BioAssay AID493014 (National Center for Advancing Translational Sciences (NCATS), 2011).

As a reminder, the AC50 is the concentration giving half of the maximal activity seen.

The other results are listed elsewhere or left out. These are further read-outs of the screen, such as a control signal, another cell line or another target. No call is given for them. Compounds called inactive in the main read-out are mostly missing here. Potencies come from curve fits of mixed quality, noted in brackets.

This test is described as follows: qHTS Assay to Find Inhibitors of Chronic Active B-Cell Receptor Signaling. The following applies: ABC-DLBCL IkBa-CBG/CBR reporter, luminescence ratio (green luciferase fused to IkBa over red control in TMD8 lymphoma cells), 4 h. Summed up: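 TMD8 human ABC-DLBCL cells with doxycycline-inducible IκBα–green luciferase fusion and unfused red luciferase, in 0.5% FBS medium; compounds up to 46 uM, 4 h at 37C. Green/red luminescence ratio, filter-overlap corrected, fitted to concentration-response curves.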

Setting [1] is: measured here: CBR red luminescence, cell number.
[2] abbreviates: measured here: IkBa-CBG green luminescence.

For the compound `O=C(O)CCSc1nc2ccccc2n1-c1ccccc1`, the AC50 under setting [1] was 3.98 µM [rising, full curve].
On the same count and under the same terms, the result for `COc1cccc(OCCOCCN(C)CCO)c1` reads 20.6 µM [rising, single point]; that for `Cc1c(NC(=O)C2CC=CCC2C(=O)O)c(=O)n(-c2ccccc2)n1C` (centres undefined), 2.31 µM [rising, partial curve].
Regarding `O=C(COC(=O)c1c[nH]c2ccccc12)Nc1ccccc1`, under setting [1], the AC50 is 23.1 µM [falling, single point].
The same measure, in the same setting: the result for `CCN(CC)S(=O)(=O)c1cc(NC(=O)C(C)N2CCN(c3ccccn3)CC2)ccc1C` (centres undefined) reads 35.5 µM [falling, single point]; that for `CCOC(=O)c1cccc(NC(=O)c2ccc3c(c2)OCO3)c1`, 3.98 µM [falling, full curve].
On the same count and under the same terms, the figure for `COc1ccc(C(=O)Nc2cccc(-c3cc4ccccc4oc3=O)c2)cc1[N+](=O)[O-]` is 23.1 µM [rising, single point]; for `Cc1nnc(SCC(=O)Nc2sccc2C#N)s1` it is 3.98 µM [rising, single point].
Still for that read-out and setting: the figure for `O=C(COC(=O)Cn1nnc2ccccc21)NC1CCCC1` is 6.31 µM [rising, partial curve, poor fit]; for `OC(CN1CCN(c2ccccn2)CC1)Cn1c2ccccc2c2ccccc21` (centres undefined) it is 0.13 µM [falling, single point]; for `COc1ccc(S(=O)(=O)N2CCC(C(=O)Nc3ccccc3N3CCCC3)CC2)cc1OC` it is 0.1 µM [rising, full curve, poor fit].
Take `COc1ccc2nccc(/C=C/c3ccnc4ccc(OC)cc34)c2c1`: under setting [1], the AC50 was 11.2 µM [falling, single point].
Regarding `C(=N\N=C\c1ccccc1)/c1ccccc1`, the AC50 under setting [1] is 1.26 µM [rising, full curve, poor fit].
With `COc1ccc(C2=NN(C(=O)c3ccccc3)C(c3ccc(OC)c(OC)c3)C2)cc1OC` (centres undefined), under setting [2], the AC50 was 3.16 µM [falling, partial curve, poor fit].
Turning to `COc1ccc(/C=C/C(=O)c2ccc(C(=O)/C=C/c3ccc(OC)c(OC)c3)cc2)cc1OC`, the half-maximal activity concentration (AC50) under setting [2] is 12.6 µM [falling, partial curve].
For `O=C(O)c1ccc(/C=N\Nc2ccc(S(=O)(=O)N3CCOCC3)cc2[N+](=O)[O-])cc1`, the AC50 under setting [1] was 1 µM [rising, full curve, poor fit].
On the same count and under the same terms, the result for `CC1CCCCC1NCC#CCOc1ccc(Cl)cc1` (centres undefined) reads 22.4 µM [falling, single point].
Same read-out and setting: the figure for `CC1CC(=O)NN=C1c1ccc(NCCO)c([N+](=O)[O-])c1` (centres undefined) is 23.1 µM [rising, partial curve, poor fit]; for `CC(C)Oc1nnnn1-c1ccccc1` it is 35.5 µM [rising, single point]; for `CCc1nc(N)c(C#N)c(-c2ccc(OC)c(OC)c2)c1C` it is 0.461 µM [rising, full curve, poor fit].
As for `CCc1cc(C(=O)N=Nc2c(O)[nH]c3ccc([N+](=O)[O-])cc23)c2ccccc2n1`, the AC50 was 20.6 µM [falling, partial curve] under setting [1] and 29.1 µM [rising, partial curve, poor fit] under setting [2].
`CCOc1ccc(/C=N/NC(=O)c2cc3c(OC)cc(OC)cc3[nH]2)cc1OC`: under setting [1], the AC50 is 7.08 µM [falling, full curve, poor fit].
Regarding `COc1ccc(OCCCC(=O)Nc2ccc(OC)c(S(=O)(=O)N3CCOCC3)c2)cc1`, the AC50 under setting [1] is 3.66 µM [rising, single point].
On the same count and under the same terms, the figure for `CC(C)NC(=S)NNc1nc2ccccc2s1` is 17.8 µM [rising, partial curve, poor fit].
Take `COc1ccccc1C(=O)Nc1ccon1`: under setting [1], the AC50 was 13 µM [falling, partial curve, poor fit].
For `Cc1cccc(Nc2ccc(C(=O)N3CCOCC3)cn2)c1`, the AC50 under setting [1] is 5.62 µM [rising, single point].
Take `O=C(CCCCCN1C(=O)c2ccccc2C1=O)NCc1ccccn1`: under setting [1], the AC50 was 10 µM [rising, partial curve, poor fit].
As to `COc1nc(NCC(C)C)nc(Oc2ccc(OCc3ccccc3)nn2)n1`, the AC50 under setting [2] is 7.31 µM [falling, partial curve, poor fit].
Take `COCCn1c(SCc2ccccc2)nc2c1c(=O)[nH]c(=O)n2C`: the AC50 under setting [1] was 14.1 µM [rising, single point].
`O=Cc1cn(-c2ccccc2)nc1-c1ccc(F)cc1`: the AC50 under setting [1] was 7.08 µM [rising, partial curve].
As for `COc1ccc(C/C(C)=N/NC(=S)Nc2ccccc2F)cc1`, the AC50 under setting [1] is 22.4 µM [falling, partial curve, poor fit] and the AC50 under setting [2] was 35.5 µM [falling, single point].
Regarding `COCCNCCOCCOc1ccc(Cl)c(C)c1`, the AC50 under setting [1] was 32.6 µM [falling, partial curve, poor fit].
On to `CC(=O)c1sc2nc(C)c3c(c2c1N)CCCC3`, for which, under setting [1], the AC50 is 5.62 µM [rising, partial curve, poor fit].
Still for that read-out and setting: the figure for `Cc1c(Nc2nc3ccccc3nc2NS(=O)(=O)c2cccc(Cl)c2)c(=O)n(-c2ccccc2)n1C` is 14.6 µM [falling, single point]; for `O=C(O)c1ccccc1OC(=O)C12CC3CC(CC(C3)C1)C2` it is 17.8 µM [rising, single point]; for `O=C(CNC(=O)c1cccc(F)c1)N/N=C/c1cccs1` it is 11.2 µM [rising, partial curve, poor fit].
In the case of `Oc1c(C(c2ccccn2)N2CCC(Cc3ccccc3)CC2)cc(Cl)c2cccnc12` (centres undefined), the AC50 under setting [2] was 5.62 µM [falling, single point].
Take `CCOC(=O)c1ccc(N/N=C/c2cc(Br)cc([N+](=O)[O-])c2O)cc1`: under setting [1], the AC50 was 0.794 µM [falling, full curve].
The same measure, in the same setting: the figure for `CC(=O)c1cccc(NC=C2C(=O)OC3(CCCCC3)OC2=O)c1` is 35.5 µM [rising, single point].
As to `C/C(=N\Nc1ccc(C(=O)O)cc1)c1nc2ccccc2n1C`, the concentration at half-maximal activity (AC50) under setting [1] was 0.0517 µM [falling, full curve].
The same measure, in the same setting: the result for `Cc1ccc(C)c(C(=O)COc2ccc(C)nc2[N+](=O)[O-])c1` reads 29.1 µM [falling, single point]; that for `O=C(CC1C(=O)NCCN1Cc1c(F)cccc1Cl)NCCc1ccccn1` (centres undefined), 3.16 µM [rising, partial curve, poor fit].
